Results from publication PMC7450052.
No constants are given. Whether binding was seen depends on the method and setting. Binding seen in cells or lysates may run through a third protein. Some results given as binding are weak or reduced against the parent protein; the word gives no strength.

Amino acid sequences for entries named in this document (tags omitted).
UniProt Q13485: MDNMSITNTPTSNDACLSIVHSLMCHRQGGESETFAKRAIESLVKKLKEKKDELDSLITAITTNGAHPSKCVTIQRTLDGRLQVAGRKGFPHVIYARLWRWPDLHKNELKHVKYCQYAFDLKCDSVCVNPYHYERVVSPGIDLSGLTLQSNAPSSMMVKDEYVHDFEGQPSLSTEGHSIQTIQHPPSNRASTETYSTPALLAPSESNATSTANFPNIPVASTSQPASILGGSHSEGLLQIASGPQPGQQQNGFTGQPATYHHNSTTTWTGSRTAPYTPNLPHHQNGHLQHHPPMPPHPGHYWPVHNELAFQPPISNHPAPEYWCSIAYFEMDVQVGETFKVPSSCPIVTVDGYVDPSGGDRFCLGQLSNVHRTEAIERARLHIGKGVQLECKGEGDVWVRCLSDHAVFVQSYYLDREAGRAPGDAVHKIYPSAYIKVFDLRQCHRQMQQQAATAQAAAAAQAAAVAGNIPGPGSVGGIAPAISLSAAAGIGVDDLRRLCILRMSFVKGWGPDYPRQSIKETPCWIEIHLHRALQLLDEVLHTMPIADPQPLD
UniProt P84022: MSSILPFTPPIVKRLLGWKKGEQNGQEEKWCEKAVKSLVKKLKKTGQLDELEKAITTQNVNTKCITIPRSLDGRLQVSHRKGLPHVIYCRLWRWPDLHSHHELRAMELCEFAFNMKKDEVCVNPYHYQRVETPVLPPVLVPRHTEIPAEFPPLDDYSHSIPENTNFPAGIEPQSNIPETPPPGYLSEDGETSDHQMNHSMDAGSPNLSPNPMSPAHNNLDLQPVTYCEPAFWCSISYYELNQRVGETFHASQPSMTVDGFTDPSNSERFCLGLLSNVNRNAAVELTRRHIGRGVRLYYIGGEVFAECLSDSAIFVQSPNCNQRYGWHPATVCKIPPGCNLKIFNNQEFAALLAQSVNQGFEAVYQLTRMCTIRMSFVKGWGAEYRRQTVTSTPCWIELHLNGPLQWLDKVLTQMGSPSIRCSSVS
UniProt Q15796: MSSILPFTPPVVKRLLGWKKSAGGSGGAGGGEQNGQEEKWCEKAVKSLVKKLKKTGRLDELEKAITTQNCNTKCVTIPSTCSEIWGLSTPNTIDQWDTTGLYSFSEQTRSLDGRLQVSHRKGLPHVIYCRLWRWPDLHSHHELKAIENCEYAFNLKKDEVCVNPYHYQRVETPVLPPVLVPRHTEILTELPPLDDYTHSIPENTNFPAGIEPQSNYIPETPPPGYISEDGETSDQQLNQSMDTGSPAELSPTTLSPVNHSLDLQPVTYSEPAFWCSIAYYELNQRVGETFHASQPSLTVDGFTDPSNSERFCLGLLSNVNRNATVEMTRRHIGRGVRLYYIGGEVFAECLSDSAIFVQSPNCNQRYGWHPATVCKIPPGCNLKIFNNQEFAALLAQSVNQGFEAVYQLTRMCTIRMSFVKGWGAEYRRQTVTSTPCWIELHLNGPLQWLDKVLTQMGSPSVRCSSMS
UniProt P51608: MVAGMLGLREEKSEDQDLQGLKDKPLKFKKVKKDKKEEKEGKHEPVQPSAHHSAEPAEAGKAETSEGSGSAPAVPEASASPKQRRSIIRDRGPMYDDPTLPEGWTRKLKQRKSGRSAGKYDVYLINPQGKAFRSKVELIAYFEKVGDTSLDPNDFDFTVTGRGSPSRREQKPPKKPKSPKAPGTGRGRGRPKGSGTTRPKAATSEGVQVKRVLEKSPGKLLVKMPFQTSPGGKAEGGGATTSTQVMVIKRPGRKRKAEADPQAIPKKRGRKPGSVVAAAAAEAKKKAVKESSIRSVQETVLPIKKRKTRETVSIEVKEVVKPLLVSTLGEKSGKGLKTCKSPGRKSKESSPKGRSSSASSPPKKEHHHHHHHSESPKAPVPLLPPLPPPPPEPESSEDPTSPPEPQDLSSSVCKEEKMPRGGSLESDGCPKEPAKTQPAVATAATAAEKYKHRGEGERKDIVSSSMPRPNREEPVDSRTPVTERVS

Tests used:
Assay in all cases: co-IP; 293T cell lysate in co-IP buffer (10 mM HEPES pH 8.0, 300 mM NaCl, 0.1 mM EDTA, 20% glycerol, 0.2% NP-40, protease and phosphatase inhibitors); pre-cleared; IP with the indicated first antibodies at 4 °C overnight; Protein A/G beads; western blotting
[1] = molecular target: Smad4 (human (in 293T cells; endogenous or transfected not stated)) (UniProt Q13485)
[2] = molecular target: Smad3 (human (in 293T cells; endogenous or transfected not stated)) (UniProt P84022)
[3] = molecular target: Smad2 (human (in 293T cells; endogenous or transfected not stated)) (UniProt Q15796)

Measured: binding

Methyl-CpG-binding protein 2 (from UniProt P51608 1-486)
binds: all assays above
